Measured values as given in article PMC5841803, “Retinal guanylyl cyclase activating protein 1 forms a functional dimer” (PLoS ONE, 2018).
Substitutions are numbered along the chain they refer to. No constants are given. Whether binding was seen depends on the method and setting.

Assays:
GCAP1 H19R (bovine) = GCAP1 H19R (bovine) (UniProt P46065); experiment: SEC; analytical SEC, Superdex 200 HR 10/30, 100 uL of 200 uM protein, 10 mM Tris pH 7.4, 100 mM NaCl, 1 mM DTT, 4 C, with saturating Mg2+ (2 mM) or Ca2+ (2 mM); molar mass from elution time against protein standards; both purified
GCAP1 F73E (bovine) [1] = molecular target: GCAP1 F73E (bovine) (UniProt P46065); experiment: NMR 1H-15N HSQC peak widths; 15N-labelled myristoylated GCAP1 0.5 mM, 10 mM Tris pH 7.4, 1 mM DTT, 37 C, 800 MHz; Ca2+-bound state by the legend of Fig 6A; sharpness of peaks of mutant against wild type; both purified
GCAP1 F73E (bovine) [2] = molecular target: GCAP1 F73E (bovine) (UniProt P46065); experiment: SEC; analytical SEC, Superdex 200 HR 10/30, 100 uL of 200 uM protein, 10 mM Tris pH 7.4, 100 mM NaCl, 1 mM DTT, 4 C, with saturating Mg2+ (2 mM) or Ca2+ (2 mM); molar mass from elution time against protein standards; both purified
GCAP1 V77E (bovine) = GCAP1 V77E (bovine) (UniProt P46065); experiment: as above

B1: GCAP1 H19R (protein, UniProt P46065 1-205)
chain: MGNIMSGKSVEELSSTECRQWYKKFMTECPSGQLTLYEFRQFFGLKNLSPWASQYVEQMFETFDFNKDGYIDFMEYVAALSLVLKGKVEQKLRWYFKLYDVDGNGCIDRDELLTIIRAIRAINPCSDSTMTAEEFTDTVFSKIDVNGDGELSLEEFMEGVQKDQMLLDTLTRSLDLTRIVRRLQNGEQDEEGASGRETEAAEADG
modifications: N-terminal myristoylation
In the case of B1, the binding (GCAP1 H19R (bovine)) is reported as “no binding (tested: 200 μM protein applied)”.

B2: GCAP1 F73E (protein, UniProt P46065 1-205)
chain: B1 chain with R19H, F73E
modifications: N-terminal myristoylation
In the case of B2, the binding (GCAP1 F73E (bovine) [1]) is reported as “no binding (tested: 0.5 mM)” and the binding (GCAP1 F73E (bovine) [2]) is reported as “no binding (tested: 200 μM protein applied)”.

B3: GCAP1 V77E (protein, UniProt P46065 2-205)
chain: GNIMSGKSVEELSSTECHQWYKKFMTECPSGQLTLYEFRQFFGLKNLSPWASQYVEQMFETFDFNKDGYIDFMEYEAALSLVLKGKVEQKLRWYFKLYDVDGNGCIDRDELLTIIRAIRAINPCSDSTMTAEEFTDTVFSKIDVNGDGELSLEEFMEGVQKDQMLLDTLTRSLDLTRIVRRLQNGEQDEEGASGRETEAAEADG
modifications: N-terminal myristoylation
In the case of B3, the binding (GCAP1 V77E (bovine)) is reported as “no binding (tested: 200 μM protein applied)”.
